Test results: PubChem BioAssay AID330 (DTP/NCI, 2004)
The list shows only some results of the screen, not a fair sample: it gathers tests that were run many times, whatever their T/C, doses with no T/C, and many T/C values between a quarter and a half above the control. Other doses and runs of a compound stand elsewhere. T/C gives the treated animals as a percentage of the vehicle group. Some entries give survivors of the animals treated and no T/C: the source files T/C as zero there, which appears to mark a toxic dose or a test without result, not a measured value. Some doses without a T/C left all or most animals alive at the check, yet need not have been tolerated: survival well below the control is almost never listed, so the zero probably covers shortened survival too. Counts of survivors are from the toxicity check (mostly the fifth day) where no day follows; animals may have died later. Schedules are NCI's codes, read here as Q, the interval in days (D) or hours (H), X, the number of doses. Some entries were tested several times; their values stand side by side, smallest first. Where survival is the endpoint, this PubChem deposit counts one and a half times the control or more as active, and values a quarter to a half above the control carry no call in these data; other NCI protocols may use other cut-offs. Some T/C values carry the count of animals alive at the toxicity check (mostly the fifth day); where none is given, no animal had died by that day.

Test system: P388 leukemia ip, CD2F1 mice, survival T/C
Assay: NCI In Vivo Anticancer Drug Screen. Data for tumor model P388 Leukemia (intraperitoneal) in CD2F1 (CDF1) mice
Conditions: T/C endpoint: median survival time, higher T/C = longer survival
[1] = dose: 120.0 mg/kg/injection, schedule: Q01DX005 (ip), vehicle: saline with Tween-80
[2] = dose: 240.0 mg/kg/injection, schedule: Q01DX005 (ip), vehicle: saline with Tween-80
[3] = dose: 25.0 mg/kg/injection, schedule: Q01DX005 (ip), vehicle: Klucel (hydroxypropylcellulose) (HPC)
[4] = dose: 50.0 mg/kg/injection, schedule: Q01DX005 (ip), vehicle: Klucel (hydroxypropylcellulose) (HPC)
[5] = dose: 100.0 mg/kg/injection, schedule: Q01DX005 (ip), vehicle: Klucel (hydroxypropylcellulose) (HPC)
[6] = dose: 100.0 mg/kg/injection, schedule: Q01DX009 (ip), vehicle: other
[7] = dose: 200.0 mg/kg/injection, schedule: Q01DX009 (ip), vehicle: other
[8] = dose: 50.0 mg/kg/injection, schedule: Q01DX009 (ip), vehicle: Klucel (hydroxypropylcellulose) (HPC)
[9] = dose: 100.0 mg/kg/injection, schedule: Q01DX009 (ip), vehicle: Klucel (hydroxypropylcellulose) (HPC)
[10] = dose: 200.0 mg/kg/injection, schedule: Q01DX005 (ip), vehicle: Klucel (hydroxypropylcellulose) (HPC)
[11] = dose: 100.0 mg/kg/injection, schedule: Q04DX002 (ip), vehicle: saline with Tween-80

CC1(C)N=C(N)N=C(N)N1c1ccc(CCCCc2ccc(Cl)c(S(=O)(=O)F)c2)c(Cl)c1
T/C (dose: 1.0 mg/kg/injection, schedule: Q01DX009 (ip), vehicle: saline with Tween-80): 141 % of control
T/C (dose: 2.2 mg/kg/injection, schedule: Q01DX009 (ip), vehicle: saline): 135 % of control
T/C (dose: 3.3 mg/kg/injection, schedule: Q01DX009 (ip), vehicle: saline): 130 % of control
T/C (dose: 4.0 mg/kg/injection, schedule: Q01DX009 (ip), vehicle: saline with Tween-80): 137 % of control
T/C (dose: 5.0 mg/kg/injection, schedule: Q01DX009 (ip), vehicle: saline): 140 % of control
T/C (dose: 5.5 mg/kg/injection, schedule: Q01DX009 (ip), vehicle: saline): 131 % of control
T/C (dose: 7.5 mg/kg/injection, schedule: Q01DX009 (ip), vehicle: saline): 145 % of control
T/C (dose: 8.0 mg/kg/injection, schedule: Q01DX009 (ip), vehicle: saline): 136 % of control
T/C (dose: 12.0 mg/kg/injection, schedule: Q01DX009 (ip), vehicle: saline): 145 % of control
survivor count (dose: 40.0 mg/kg/injection, schedule: Q01DX009 (ip), vehicle: saline): 2 of 6

N=C(N)c1ccc2nc(/C=C\c3nc4ccc(C(=N)N)cc4[nH]3)[nH]c2c1
T/C (dose: 400.0 mg/kg/injection, schedule: Q04DX002 (ip), vehicle: saline): 125 % of control

COc1ccc2c(c1)-c1nn(CCCN(C)C)c3ccc([N+](=O)[O-])c(c13)N2
survivor count (dose: 25.0 mg/kg/injection, schedule: Q01DX005 (ip), vehicle: water): 6 of 6
survivor count (dose: 50.0 mg/kg/injection, schedule: Q01DX005 (ip), vehicle: water): 6 of 6
survivor count (dose: 100.0 mg/kg/injection, schedule: Q01DX005 (ip), vehicle: water): 6 of 6

CCC1COCC1Cc1cncn1C (stereo unspecified)
survivor count (dose: 240.0 mg/kg/injection, schedule: Q01DX005 (ip), vehicle: saline): 3 of 6

CC(C)(c1ccc(OCC2CO2)cc1)c1ccc(OCC2CO2)cc1 (stereo unspecified)
T/C (dose: 100.0 mg/kg/injection, schedule: Q01DX009 (ip), vehicle: saline with Tween-80): 131 % of control
T/C (dose: 200.0 mg/kg/injection, schedule: Q01DX009 (ip), vehicle: saline with Tween-80): 131 % of control

COC1=C(OC)C(=O)C(COC2CCCCO2)=CC1=O (stereo unspecified)
survivor count (dose: 30.0 mg/kg/injection, schedule: Q01DX005 (ip), vehicle: saline with Tween-80): 1 of 6
survivor count (dose: 60.0 mg/kg/injection, schedule: Q01DX005 (ip), vehicle: saline with Tween-80): 0 of 6
survivor count [1]: 0 of 6
survivor count [2]: 0 of 6

OCc1ccc(O)c(O)c1
T/C (dose: 50.0 mg/kg/injection, schedule: Q01DX005 (ip), vehicle: saline): 130 % of control
T/C (dose: 200.0 mg/kg/injection, schedule: Q01DX005 (ip), vehicle: saline): 129 % of control
T/C (dose: 400.0 mg/kg/injection, schedule: Q01DX005 (ip), vehicle: saline): 130 % of control

COc1nc(COC(=O)NC(C)C)c(COC(=O)NC(C)C)n1C
T/C [3]: 130 % of control
T/C [4]: 147 % of control
T/C [5]: 148 % of control

COC(=O)C1C(=O)COC1C (stereo unspecified)
survivor count (dose: 100.0 mg/kg/injection, schedule: Q01DX005 (ip), vehicle: saline): 5 of 6

CCC(=O)[O-].CCC(=O)[O-].CCC(=O)[O-].CCC(=O)[O-].O=S(=O)(O)O.[Re].[Re]
survivor count (dose: 300.0 mg/kg/injection, schedule: Q01DX009 (ip), vehicle: suspension in saline): 3 of 6
survivor count (dose: 500.0 mg/kg/injection, schedule: Q01DX009 (ip), vehicle: suspension in saline): 1 of 6

Cc1cc2nc3c(=O)[nH]c(=O)nc-3n(CC=O)c2cc1C
survivor count (dose: 512.0 mg/kg/injection, schedule: Q01DX009 (ip), vehicle: saline with Tween-80): 5 of 6

CCCCCCCCCCCCCCCC(=O)N(CCCN(C)C)C(C)(C)CCC(C)(C)N(CCCN(C)C)C(=O)CCCCCCCCCCCCCCC
survivor count [6]: 0 of 6
survivor count [7]: 0 of 6
survivor count (dose: 400.0 mg/kg/injection, schedule: Q01DX009 (ip), vehicle: other): 0 of 6

NNC(=O)C(=O)NNC1CCCCC1
survivor count (dose: 400.0 mg/kg/injection, schedule: Q01DX009 (ip), vehicle: Klucel (hydroxypropylcellulose) (HPC)): 0 of 6

O/N=C/C(Cl)(Cl)Cl
survivor count (dose: 50.0 mg/kg/injection, schedule: Q01DX009 (ip), vehicle: saline): 0 of 6
survivor count (dose: 100.0 mg/kg/injection, schedule: Q01DX009 (ip), vehicle: saline): 0 of 6

Cc1oc2c(C)c3oc(=O)cc(C)c3cc2c1CN
survivor count (dose: 50.0 mg/kg/injection, schedule: Q01DX001 (ip), vehicle: Klucel (hydroxypropylcellulose) (HPC)): 1 of 6

CCSC(C(OC(C)=O)C(OC(C)=O)C(COC(C)=O)OC(C)=O)n1cc(F)c(=O)[nH]c1=O (stereo unspecified)
survivor count (dose: 25.0 mg/kg/injection, schedule: Q01DX009 (ip), vehicle: other): 6 of 6
survivor count (dose: 50.0 mg/kg/injection, schedule: Q01DX009 (ip), vehicle: other): 6 of 6
survivor count [6]: 6 of 6
survivor count [7]: 6 of 6

COc1ccc(C(=O)CCN(C)C)cc1
survivor count (dose: 200.0 mg/kg/injection, schedule: Q01DX009 (ip), vehicle: saline): 5 of 6

COc1ccc(C(Cl)(c2ccccc2)c2ccc(C(C)=O)cc2)cc1 (stereo unspecified)
survivor count [1]: 6 of 6
survivor count [2]: 6 of 6

CC(=O)OCC1=CCCC1=O
survivor count [8]: 4 of 6
survivor count [9]: 0 of 6
survivor count (dose: 200.0 mg/kg/injection, schedule: Q01DX009 (ip), vehicle: Klucel (hydroxypropylcellulose) (HPC)): 0 of 6

CN=C(NCCCOC)c1ccc(NC(=O)c2ccc(C(=O)Nc3ccc(C(=NC)NCCCOC)cc3)cc2)cc1
survivor count (dose: 100.0 mg/kg/injection, schedule: Q04DX003 (ip), vehicle: saline with Tween-80): 0 of 6
survivor count (dose: 200.0 mg/kg/injection, schedule: Q04DX003 (ip), vehicle: saline with Tween-80): 0 of 6
survivor count (dose: 400.0 mg/kg/injection, schedule: Q04DX003 (ip), vehicle: saline with Tween-80): 0 of 6

[N-]=[N+]=C1N=CN=C1c1ncn[nH]1
T/C (dose: 3.12 mg/kg/injection, schedule: Q01DX009 (ip), vehicle: Klucel (hydroxypropylcellulose) (HPC)): 126 % of control
T/C (dose: 6.25 mg/kg/injection, schedule: Q01DX009 (ip), vehicle: Klucel (hydroxypropylcellulose) (HPC)): 132 and 136 % of control
T/C (dose: 12.5 mg/kg/injection, schedule: Q01DX009 (ip), vehicle: Klucel (hydroxypropylcellulose) (HPC)): 136 % of control
T/C (dose: 25.0 mg/kg/injection, schedule: Q01DX009 (ip), vehicle: Klucel (hydroxypropylcellulose) (HPC)): 136 % of control [5 of 6 alive]
T/C [8]: 136 % of control [5 of 6 alive]
survivor count [9]: 0 of 6 and 1 of 6

C=CCC1=C(C2CO2)C(=O)c2ccccc2C1=O (stereo unspecified)
survivor count [3]: 0 of 6
survivor count [4]: 0 of 6
survivor count [5]: 0 of 6
survivor count [10]: 0 of 6

COc1ccc2c(ccc3oc([N+](=O)[O-])cc32)c1
T/C [4]: 142 % of control
T/C [5]: 132 and 135 % of control
T/C [10]: 144 % of control
survivor count [10]: 6 of 6
survivor count (dose: 400.0 mg/kg/injection, schedule: Q01DX005 (ip), vehicle: Klucel (hydroxypropylcellulose) (HPC)): 6 of 6

CC(C)=CCC/C(C)=C\CN(C)C
survivor count [11]: 1 of 6
survivor count (dose: 200.0 mg/kg/injection, schedule: Q04DX002 (ip), vehicle: saline with Tween-80): 1 of 6
survivor count (dose: 400.0 mg/kg/injection, schedule: Q04DX002 (ip), vehicle: saline with Tween-80): 1 of 6

CNc1nc(-c2ccc(C(C)(C)C)cc2)c(-c2ccc(C(C)(C)C)cc2)[nH]1
survivor count [11]: 1 of 6

Cn1c(N)c2c(=O)n(C)c3c(c2c(C#N)c1=O)CCSc1ccccc1-3
survivor count (dose: 200.0 mg/kg/injection, schedule: Q01DX005 (ip), vehicle: saline with Tween-80): 5 of 6
